Source: PubChem BioAssay AID504786 (Drosophila RNAi Screening Center, 2011)

Screen: 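Fly genes required for HIF-dependent transcription when hypoxia is mimicked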 (primary screen)
System: Drosophila S2 cells with a stable HIF luciferase reporter
Reagents: long dsRNA against Drosophila genes, about 0.2 µg dsRNA per well of a 384-well plate
Duration: three days of knock-down, then 20 h of DFO before reading
Treatment: desferrioxamine (DFO) at 100 µM, an iron chelator that mimics hypoxia, for 20 h
Measurement: 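HIF reporter luminescence in cells given 100 µM DFO for 20 h, using the mouse ldh-a hypoxia-response element, scored as per-plate z-scores; higher means greater loss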
Direction: z-score: higher = stronger loss of HIF reporter signal
In all, the deposit lists about 21,000 reagents; below is an unselected part of those that have a named target and a result. 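Primary screen; positive scores mean lost reporter signal, so the sign may be inverted from the usual convention.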 Reagents against one gene are numbered here. Names joined by + are all predicted targets of the reagent. Further read-outs or replicates are left out here.

no.	predicted target	reagent	z-score, replicate 1	z-score, replicate 2	z-score, replicate 3
1	Ndfip	1	-0.3	-0.5	
2	nod	1	-0.5	-0.2	
3	nod	2	0.3	0.5	
4	CG1441	1	-0.4	-0.4	
5	Sf3b3	1	-0.1	0.2	
6	Trxr1	1	-0.4	-0.7	
7	CG2794	1	-0.2	-0.2	
8	Tdg	1	-0.2	0.3	
9	Tdg	2	-0.3	-0.9	
10	cad	1	0.2	1	
11	CG3534	1	-0.1	-0.4	
12	Stoml2	1	0.2	0.2	
13	Klf15	1	-0.3	-0.1	
14	Os-C	1	-0.1	-0.3	
15	Mtk	1	-0.5	-0.4	
16	COX8	1	1.7	1.4	
17	CG16890	1	-0.3	0	
18	Gycalpha99B	1	-0.3	0	
19	CG33490	1	-0.3	-0.1	
20	CG16976 (retired record)	1	-0.1	0.5	
21	CG16976 (retired record)	2	-0.3	0.4	
22	Pdxk	1	-0.1	2.3	
23	CG31872	1	-0.1	0.1	
24	CG31872	2	-0.2	-0.3	
25	SelG	1	-0.4	-0.6	
26	CG34200	1	0	-0.1	
27	bchs	1	0	0.3	
28	Xpd	1	-0.4	-1.2	
29	Edc3	1	-0.4	-1	
30	CG42700	1	3.8	4.2	
31	CG42700	2	-0.3	-0.2	
32	CG10657	1	-0.3	-0.2	-0.4
33	TfIIEbeta	1	-0.4	-0.2	
34	Jhbp6	1	-0.3	0.8	
35	CG9213	1	0.7	0.8	
36	CG10862	1	-0.1	-0.3	
37	Pepck1	1	-0.3	-0.4	
38	CG13868	1	-0.2	-0.5	
39	CG18537	1	-0.3	-0.7	
40	CG15358	1	0	-0.5	
41	mRpL32	1	2.1	1.2	
42	CG17359	1	-0.1	0.1	
43	bip1	1	-0.4	-0.2	
44	Torsin	1	-0.2	2.1	-0.2
45	hpRNA:CR18854 + IP3K1	1	-0.2	-0.6	
46	Eglp2	1	-0.2	-0.1	
47	APP-BP1	1	-0.5	-0.9	
48	CG7049	1	-0.2	-0.3	
49	CG15403	1	-0.2	-0.1	
50	CG15480	1	-0.4	-0.6	
51	IntS9	1	-0.3	-0.6	
52	CG14402	1	-0.1	-0.2	
53	CG31278	1	-0.3	-0.7	
54	CG1273	1	-0.4	-0.4	
55	Obp47b + CG7741	1	-0.2	0.1	
56	Cyp303a1	1	-0.5	0.2	
57	ProtA	1	-0.3	-0.2	
58	alpha4GT1	1	-0.3	-0.3	
59	Exo70	1	-0.4	-0.3	
60	CG13454	1	0.7	-0.4	
61	lncRNA:CR32658	1	-0.3	-0.2	
62	CG9525	1	-0.3	-0.1	
63	Pde1c	1	-0.1	-0.1	
64	Pde1c	2	-0.1	-0.2	
65	Pde1c	3	1.1	1.4	
66	Pde1c	4	0	1.2	
67	Pde1c	5	0.1	0	
68	Pde1c	6	-0.4	0.3	
69	CG14160	1	-0.2	-0.3	
70	mspo	1	-0.2	-0.2	
71	CG31213	1	0.8	0.1	
72	CG31213	2	0.2	0.5	
73	rump	1	1.8	1.3	
74	crn	1	6.3	4	
75	crn	2	4.3	4	
76	crn	3	4.7	3.9	
77	Tsp42El	1	-0.1	-0.6	
78	CG34396	1	-0.1	-0.4	
79	CG34396	2	-0.1	0	
80	CG15356	1	0.4	0.6	
81	CG5070	1	-0.3	-0.5	
82	Adat1	1	-0.7	-0.1	
83	CG32110	1	0.3	0	

Targets listed so far whose target name begins with N or n:
predicted target	reagent	z-score, replicate 1	z-score, replicate 2	z-score, replicate 3
Ndfip	1	-0.3	-0.5	
nod	1	-0.5	-0.2	
nod	2	0.3	0.5	
